Experimental findings from patent US10098841B2, “Method of inducing a phase transition of a bilayer membrane vesicle” (Japan Science and Technology Agency, priority 2005, dated 2018) are described below.

This data set is described as follows: Quantification of pseudo-ceramide 2B produced in the MLV by ESI-MS.

Turning to `COc1nc(Cl)nc(OC)n1` [CDMT, 2-chloro-4,6-dimethoxy-1,3,5-triazin], the Yield of pseudo-ceramide by setting is: (CDMT 25 equivalents, C16 tertiary amine in MLV, 2 hr) 42%; (CDMT 25 equivalents, C16 tertiary amine in MLV, 5 hr) 92%; (CDMT 50 equivalents, C8 tertiary amine in MLV, 5 hr) 7%; (CDMT 50 equivalents, C8 tertiary amine in MLV, 12 hr) 20%; (CDMT 50 equivalents, C16 tertiary amine in MLV, 2 hr) 80%; (CDMT 50 equivalents, C16 tertiary amine in MLV, 5 hr) 88%. For the same compound, the “production of pseudo-ceramide (in words)” value (CDMT added to MLV dispersion that does not contain a tertiary amine) is on record as “not observed”.
Consider `COc1nc(OC)nc([N+]2(C)CCOCC2)n1.[Cl-]` [DMT-MM, 4-(4,6-dimethoxy-1,3,5-triazin-2-yl)-4-methylmorpholium chloride], for which the Yield of pseudo-ceramide (DMT-MM 50 equivalents, MLV without tertiary amine, 36 hr) is 9%.
